Reference: patent US20240115574A1, “INHIBITION OF nSMase FOR THE TREATMENT OF HUMAN IMMUNODEFICIENCY VIRUS INFECTION” (The Johns Hopkins University, priority 2018, published 2024)
For at least one compound, name, drawing or mass did not settle the structure.

Protein sequences, listed by entry. Tags and fused reporters are not part of them.
UniProt Q9NY59, whole entry, species assumed: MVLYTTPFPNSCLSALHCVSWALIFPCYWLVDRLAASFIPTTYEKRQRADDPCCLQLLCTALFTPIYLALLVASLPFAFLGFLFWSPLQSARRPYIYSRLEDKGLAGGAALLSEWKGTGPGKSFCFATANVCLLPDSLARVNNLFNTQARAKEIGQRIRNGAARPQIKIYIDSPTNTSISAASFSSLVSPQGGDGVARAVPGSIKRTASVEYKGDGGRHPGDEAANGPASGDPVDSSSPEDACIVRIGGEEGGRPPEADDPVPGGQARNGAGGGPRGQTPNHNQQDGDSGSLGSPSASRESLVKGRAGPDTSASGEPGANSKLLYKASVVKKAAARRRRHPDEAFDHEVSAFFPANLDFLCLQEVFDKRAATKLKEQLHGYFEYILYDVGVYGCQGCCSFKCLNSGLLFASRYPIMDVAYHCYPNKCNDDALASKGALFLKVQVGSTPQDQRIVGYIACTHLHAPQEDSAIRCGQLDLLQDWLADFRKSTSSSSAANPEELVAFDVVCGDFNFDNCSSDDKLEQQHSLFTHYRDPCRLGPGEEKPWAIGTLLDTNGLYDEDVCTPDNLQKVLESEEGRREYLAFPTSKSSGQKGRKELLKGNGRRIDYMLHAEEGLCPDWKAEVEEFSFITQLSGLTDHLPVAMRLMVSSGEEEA

Legend:
HIV Rf in H9 cells = assay: HIV replication in HIV-infected H9 cells, P24 ELISA of culture supernatants; type: cell-based; conditions: H9 cells infected with HIV, dose response
Experimental: Controls included no-treatment and vehicle. Cell viability and P24 were measured every 24 h for 4 days.

nSMase2 = nSMase2 (Homo sapiens (Human), UniProt Q9NY59); assay: nSMase2 inhibition (Tables 1A, 1B); type: biochemical; conditions: nSMase2, compounds of formula (II), Table 1B; read-out: Activity* (IC50 category)

SMILES	HIV replication (P24 ELISA of culture supernatants) (HIV Rf in H9 cells)	IC50 (nSMase2) [µM]
COc1ccc(-n2nnc3c(N4CC[C@@H](NC(C)=O)C4)nc(C)nc32)cc1OC [1-PROV]	did not dose-dependently reduce HIV replication	
COc1ccc(-n2c(C)nc3c(N4CC[C@@H](NC(C)=O)C4)nc(C)nc32)cc1OC [3-PROV]		> 100
COc1ccc(-c2c(C)oc3c(N4CC[C@@H](NC(C)=O)C4)cc(C)nc23)cc1OC [8-PROV]		> 100
